PubChem BioAssay AID743121 – NCATS – 2013
In all, the deposit lists about 26,000 reagents; shown is a random part of them. Of all reagents, 167 (0.63%) are marked active. 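Calls are per gene from RSA p-values that are not deposited; an individual active-marked siRNA can sensitise only weakly.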 A number with no mark means an inactive call. The numbers tell different reagents against one gene apart. Further read-outs or replicates are left out here.

Purpose: 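Knock-downs that sensitise breast cancer cells to camptothecin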 (primary screen)
Cell system: MDA-MB-231 cells, a human breast cancer line
Reagents: single siRNA against human genes, 20 nM siRNA (0.8 pmol per well)
Time to read-out: 120 h (drug added 48 h after transfection, read 72 h later)
Challenge: camptothecin 20 nM (about EC30) for 72 h; vehicle 0.1% DMSO in parallel plates
Read-out: 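CellTiter-Glo ATP signal, scaled to control siRNA as percent viability; sensitisation given as log2 of untreated divided by camptothecin-treated viability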
Scale: log2 vehicle/camptothecin viability: higher = stronger sensitisation to camptothecin
Rule for the call: 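Active genes have an RSA gene-level p-value below 0.001, computed from the ratios of their separate siRNAs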

gene	siRNA no.	log2 vehicle/camptothecin viability
AKAP17A	1	0.36
AKAP17A	2	0.0245
AKAP17A	3	-0.311
AK5	1	-0.227
AK5	2	-0.552
AK5	3	0.0304
AK5	4	-0.239
CALCRL	1	-0.341
CALCRL	2	-0.312
CALCRL	3	-0.152
CALCRL	4	-0.231
RNF11	1	-0.6
RNF11	2	0.686
RNF11	3	-0.16
RNF11	4	-0.095
PDCL	1	-0.376
PDCL	2	-0.232
PDCL	3	-0.0616
PDCL	4	-0.0111
UNKL	1	0.128
UNKL	2	-0.312
UNKL	3	-0.124
UNKL	4	-0.179
UNKL	5	-0.0855
UNKL	6	-0.0204
CELA3B	1	-0.324
CELA3B	2	-0.114
AGL	1	-0.0143
AGL	2	-0.134
AGL	3	-0.445
SORBS1	1	-0.19
SORBS1	2	0.287
SORBS1	3	-0.0434
MSX2	1	-0.271
MSX2	2	-0.0786
MSX2	3	-0.254
SP3	1	-0.35
SP3	2	-0.17
SP3	3	-0.289
SP3	4	0.823
EPS8L2	1	-0.214
EPS8L2	2	-0.335
EPS8L2	3	0.351
EPS8L2	4	-0.337
CKAP4	1	0.48
CKAP4	2	0.119
CKAP4	3	-0.223
CKAP4	4	-0.602
GPR176	1	-0.322
GPR176	2	-0.341
GPR176	3	-0.454
GPR176	4	-0.217
RPSA	1	-0.378
RPSA	2	-0.0975
RPSA	3	-0.167
RPSA	4	-0.861
GPR119	1	-0.0925
GPR119	2	-0.161
GPR119	3	-0.273
GPR119	4	-0.329
LEPROTL1	1	-0.315
LEPROTL1	2	-0.368
LEPROTL1	3	-0.0809
LEPROTL1	4	-0.222
YWHAQ	1	1.14
YWHAQ	2	-0.133
YWHAQ	3	0.369
YWHAQ	4	-0.542
GJA3	1	-0.532
GJA3	2	-0.0392
GJA3	3	-0.218
GJA3	4	-0.566
PTAFR	1	-0.578
PTAFR	2	-0.0736
PTAFR	3	-0.44
PTAFR	4	-0.0452
NTMT1	1	-0.289
NTMT1	2	0.0264
NTMT1	3	-0.119
NTMT1	4	-0.599
SLC25A24	1	0.0641
SLC25A24	2	-0.352
SLC25A24	3	0.593
CLEC4A	1	-0.212
CLEC4A	2	-0.00387
CLEC4A	3	-0.326
SIGMAR1	1	-0.132
SIGMAR1	2	-0.473
SIGMAR1	3	0.102
SIGMAR1	4	-0.0346
